{"source": "the supplement of paper PMC9744312", "note": "Structures can show the parent of a compound that is named as a salt. The list shows a part of the results. The data scatter; read single values as rough."}
{"tested_on": "Peyronie's disease tunica albuginea primary fibroblasts", "test": "cell viability (DRAQ5 nuclear stain) relative to TGF-beta1-only control; higher = more viable cells", "settings": "10 µM; TGF-beta1 10 ng/mL; 72 h", "units": {"cell viability": "%"}}
{"smiles": "Cc1ccc(C(C)C)c(O)c1", "note": "[Thymol]", "cell viability": 97.3}
{"smiles": "CC(=O)[O-].[K+]", "note": "[Potassium acetate]", "cell viability": 84.7}
{"smiles": "C#CC1(O)CC[C@H]2[C@@H]3CCC4=CC(=O)CC[C@@H]4[C@H]3CC[C@@]21CC", "note": "(some centres undefined) [Norgestrel]", "cell viability": 91.5}
{"smiles": "CC/C=C(\\C(=O)N[C@@H]1C(=O)N2C(C(=O)OCOC(=O)C(C)(C)C)=C(COC(N)=O)CS[C@H]12)c1csc(N)n1", "note": "[Cefcapene Pivoxil Hydrochloride]", "cell viability": 82.8}
{"smiles": "CC(=O)O[C@]1(C(C)=O)CC[C@H]2[C@@H]3C=C(C)C4=CC(=O)CC[C@]4(C)[C@H]3CC[C@@]21C", "note": "[Megestrol Acetate]", "cell viability": 99.4}
{"smiles": "C=C1[C@H](CO)[C@@H](O)C[C@@H]1n1cnc2c(=O)[nH]c(N)nc21", "note": "[Entecavir]", "cell viability": 93.2}
{"smiles": "C=C1[C@H](CO)[C@@H](O)C[C@@H]1n1cnc2c(=O)[nH]c(N)nc21", "note": "[Entecavir Hydrate]", "cell viability": 90.5}
{"smiles": "CN(C)C(=O)c1cc2cnc(Nc3ccc(N4CCNCC4)cn3)nc2n1C1CCCC1", "note": "[Ribociclib (LEE011)]", "cell viability": 68.3}
{"smiles": "CC[C@@]1(O)C(=O)OCc2c1cc1n(c2=O)Cc2cc3c(CN(C)C)c(O)ccc3nc2-1", "note": "[Topotecan HCl]", "cell viability": 51.8}
{"smiles": "CCOC(=O)N[C@@H]1CC[C@@H]2[C@@H](C1)C[C@H]1C(=O)O[C@H](C)[C@H]1[C@H]2/C=C/c1ccc(-c2cccc(F)c2)cn1", "note": "[Vorapaxar]", "cell viability": 90.7}
{"smiles": "Cc1cc(Nc2cc(CN3CCOCC3)c3nc(C)c(Cc4ccc(Cl)cc4F)n3n2)n[nH]1", "cell viability": 62.1}
{"smiles": "Nc1nnc(-c2cccc(Cl)c2Cl)c(N)n1", "note": "[Lamotrigine]", "cell viability": 88.2}
{"smiles": "Nc1nc(=O)[nH]cc1F", "note": "[Flucytosine]", "cell viability": 96.1}
{"smiles": "COc1cc2c(cc1Cc1cccc(Cl)c1F)c(=O)c(C(=O)O)cn2[C@H](CO)C(C)C", "note": "[Elvitegravir (GS-9137, JTK-303)]", "cell viability": 81}
{"smiles": "COc1ccc2cc3[n+](cc2c1OC)CCc1cc2c(cc1-3)OCO2", "note": "[Berberine Sulfate]", "cell viability": 72.2}
{"smiles": "COc1ccc2cc3[n+](cc2c1OC)CCc1cc2c(cc1-3)OCO2", "note": "[Berberine chloride]", "cell viability": 98.5}
{"smiles": "CC(=O)NC[C@H]1CN(c2ccc(N3CCOCC3)c(F)c2)C(=O)O1", "note": "[Linezolid]", "cell viability": 99.8}
{"smiles": "Cc1nccn1CC1CCc2c(c3ccccc3n2C)C1=O", "note": "(centres undefined) [Ondansetron Hydrochloride Dihydrate]", "cell viability": 98}
{"smiles": "Cc1nccn1CC1CCc2c(c3ccccc3n2C)C1=O", "note": "(centres undefined) [Ondansetron HCl]", "cell viability": 102}
{"smiles": "COc1ccc2c(c1)c(CC(=O)OCC(=O)O)c(C)n2C(=O)c1ccc(Cl)cc1", "note": "[Acemetacin]", "cell viability": 80.1}
{"smiles": "CCOCCn1c(N2CCCN(C)CC2)nc2ccccc21", "note": "[Emedastine Difumarate]", "cell viability": 95.2}
{"smiles": "CCOCCn1c(N2CCCN(C)CC2)nc2ccccc21", "note": "[Emedastine]", "cell viability": 109}
{"smiles": "CC1=C(C(=O)O)N2C(=O)[C@@H](NC(=O)[C@H](N)c3ccccc3)[C@H]2SC1", "note": "[Cephalexin]", "cell viability": 101}
{"smiles": "CC[C@H](C)C(=O)O[C@H]1C[C@H](O)C=C2C=C[C@H](C)[C@H](CC[C@@H](O)C[C@@H](O)CC(=O)O)[C@H]21", "note": "[Pravastatin sodium]", "cell viability": 97.4}
{"smiles": "Cc1cccn2c(=O)c(-c3nnn[nH]3)cnc12", "note": "[Pemirolast potassium]", "cell viability": 84.7}
{"smiles": "Nc1ccccc1NC(=O)c1ccc(CNc2nccc(-c3cccnc3)n2)cc1", "note": "[Mocetinostat (MGCD0103)]", "cell viability": 45.2}
{"smiles": "CC(C)(C)NCC(O)COc1cccc2c1CC(O)C(O)C2", "note": "(centres undefined) [Nadolol]", "cell viability": 96.2}
{"smiles": "CC(C)CCCCC(=O)N[C@@H](CCN)C(=O)N[C@H](C(=O)N[C@@H](CCN)C(=O)N[C@H]1CCNC(=O)[C@H]([C@@H](C)O)NC(=O)[C@H](CCN)NC(=O)[C@H](CCN)NC(=O)[C@H](CC(C)C)NC(=O)[C@@H](Cc2ccccc2)NC(=O)[C@H](CCN)NC1=O)[C@@H](C)O", "note": "[Polymyxin B sulphate]", "cell viability": 106}
{"smiles": "CC1=C(C(=O)O)N2C(=O)[C@@H](NC(=O)[C@H](N)c3ccc(O)cc3)[C@H]2SC1", "note": "[Cefadroxil hydrate]", "cell viability": 96.3}
{"smiles": "NC(=O)[C@@H](CCC(F)(F)F)N(Cc1ccc(-c2ncon2)cc1F)S(=O)(=O)c1ccc(Cl)cc1", "cell viability": 80}
{"smiles": "C=CCN1CCCC1CNC(=O)c1cc2nn[nH]c2cc1OC", "note": "(centres undefined) [Alizapride HCl]", "cell viability": 99.3}
{"smiles": "CC(C)(Oc1ccc(C2CC2(Cl)Cl)cc1)C(=O)O", "note": "(centres undefined) [Ciprofibrate]", "cell viability": 91.3}
{"smiles": "O=C(O)CCc1nc2ccccc2[nH]1", "note": "[Procodazole]", "cell viability": 91.5}
{"smiles": "NC(=O)c1cccnc1", "note": "[Nicotinamide (Vitamin B3)]", "cell viability": 87.3}
{"smiles": "Nc1nccs1", "note": "[Aminothiazole]", "cell viability": 92.9}
{"smiles": "CC(C)C[C@H](N)C(=O)O", "note": "[L-Leucine]", "cell viability": 99}
{"smiles": "Cn1c(=O)c2c(ncn2CC(O)CO)n(C)c1=O", "note": "(centres undefined) [Dyphylline]", "cell viability": 91.7}
{"smiles": "CCCc1nc(C(C)(C)O)c(C(=O)OCc2oc(=O)oc2C)n1Cc1ccc(-c2ccccc2-c2nnn[nH]2)cc1", "note": "[Olmesartan Medoxomil]", "cell viability": 95.3}
{"smiles": "CCCCCCCCCCCCCCCC[N+](C)(C)C", "note": "[Cetrimonium Bromide (CTAB)]", "cell viability": 55.7}
{"smiles": "S=c1nc[nH]c2nc[nH]c12", "note": "[6-Mercaptopurine (6-MP) Monohydrate]", "cell viability": 76.4}
{"smiles": "CCOC(=O)c1ccc(C#Cc2ccc3c(c2)C(C)(C)CCS3)nc1", "note": "[Tazarotene]", "cell viability": 101}
{"smiles": "CC(C)(C)C#Cc1cc(N(C(=O)[C@H]2CC[C@H](C)CC2)[C@H]2CC[C@H](O)CC2)c(C(=O)O)s1", "note": "[Lomibuvir (VX-222, VCH-222)]", "cell viability": 85.5}
{"smiles": "CCC(C)(C)c1ccc(CC(C)CN2C[C@@H](C)O[C@@H](C)C2)cc1", "note": "(some centres undefined) [Amorolfine HCl]", "cell viability": 97}
{"smiles": "CC[C@]12CCCN3CCc4c(n(c5ccccc45)[C@@](O)(C(=O)OC)C1)[C@@H]32", "note": "[Vincamine]", "cell viability": 93.5}
{"smiles": "NCCNc1ccc(NCCN)c2c1C(=O)c1ccncc1C2=O", "note": "[Pixantrone Maleate]", "cell viability": 42.8}
{"smiles": "O=c1[nH]c(=O)n([C@H]2C[C@H](O)[C@@H](CO)O2)cc1/C=C/Br", "note": "[Brivudine]", "cell viability": 87.5}
{"smiles": "CCOc1nc2cccc(C(=O)OC(C)OC(=O)OC3CCCCC3)c2n1Cc1ccc(-c2ccccc2-c2nn[nH]n2)cc1", "note": "(centres undefined) [Candesartan Cilexetil]", "cell viability": 91.9}
{"smiles": "CCN1CCC[C@H]1CNC(=O)c1cc(S(N)(=O)=O)ccc1OC", "note": "[Levosulpiride]", "cell viability": 87.5}
{"smiles": "Nc1ccc(S(N)(=O)=O)cc1", "note": "[Sulfanilamide]", "cell viability": 96.9}
{"smiles": "CCCNS(=O)(=O)Nc1ncnc(OCCOc2ncc(Br)cn2)c1-c1ccc(Br)cc1", "note": "[Macitentan]", "cell viability": 106}
{"smiles": "CC1=C(C(=O)OCCN(Cc2ccccc2)c2ccccc2)C(c2cccc([N+](=O)[O-])c2)C(P2(=O)OCC(C)(C)CO2)=C(C)N1", "note": "(centres undefined) [Efonidipine]", "cell viability": 96.8}
{"smiles": "CN(C)CCN1C(=O)c2cccc3cc(N)cc(c23)C1=O", "note": "[Amonafide]", "cell viability": 49.4}
{"smiles": "CCOc1ccc(Cc2cc([C@@H]3O[C@H](CO)[C@@H](O)[C@H](O)[C@H]3O)ccc2Cl)cc1", "note": "[Dapagliflozin]", "cell viability": 65.9}
{"smiles": "CCOc1ccc(Cc2cc([C@@H]3O[C@H](CO)[C@@H](O)[C@H](O)[C@H]3O)ccc2Cl)cc1", "note": "[Dapagliflozin propanediol monohydrate]", "cell viability": 73.8}
{"smiles": "O[C@@H]1CO[C@H]2[C@@H]1OC[C@@H]2O", "note": "[Isosorbide]", "cell viability": 85.4}
{"smiles": "Cc1c(O)cccc1C(=O)N[C@@H](CSc1ccccc1)[C@H](O)CN1C[C@H]2CCCC[C@H]2C[C@H]1C(=O)NC(C)(C)C", "note": "[Nelfinavir Mesylate]", "cell viability": 66.9}
{"smiles": "CN(C)CCC(c1ccccc1)c1ccccn1", "note": "(centres undefined) [Pheniramine Maleate]", "cell viability": 88.5}
{"smiles": "Cc1ccc(O)c([C@H](CCN(C(C)C)C(C)C)c2ccccc2)c1", "note": "[Tolterodine tartrate]", "cell viability": 81.3}
{"smiles": "Oc1c(Cl)cc(Cl)cc1Sc1cc(Cl)cc(Cl)c1O", "note": "[Bithionol]", "cell viability": 91.6}
{"smiles": "NC[C@H]1CC[C@H](C(=O)O)CC1", "note": "[Tranexamic Acid]", "cell viability": 89.7}
{"smiles": "CCCCOc1ccc(CC(=O)NO)cc1", "note": "[Bufexamac]", "cell viability": 87}
{"smiles": "CC(=O)OC(C)C[N+](C)(C)C", "note": "(centres undefined) [Methacholine chloride]", "cell viability": 88.2}
{"smiles": "Nc1nc(=O)c2c([nH]1)NCC(CNc1ccc(C(=O)N[C@@H](CCC(=O)O)C(=O)O)cc1)N2C=O", "note": "(some centres undefined) [Leucovorin Calcium Pentahydrate]", "cell viability": 97.6}
{"smiles": "Nc1nc(=O)c2c([nH]1)NCC(CNc1ccc(C(=O)N[C@@H](CCC(=O)O)C(=O)O)cc1)N2C=O", "note": "(some centres undefined) [Calcium folinate]", "cell viability": 98.2}
{"smiles": "O=C(O)c1cc(=O)c2c(OCC(O)COc3cccc4oc(C(=O)O)cc(=O)c34)cccc2o1", "note": "[Disodium Cromoglycate]", "cell viability": 86.1}
{"smiles": "NC(=O)NO", "note": "[Hydroxyurea]", "cell viability": 82.8}
{"smiles": "Clc1ccccc1C(c1ccccc1)(c1ccccc1)n1ccnc1", "note": "[Clotrimazole]", "cell viability": 95.2}
{"smiles": "CCC(=O)NC[C@@H]1C[C@H]1c1cccc2c1CCO2", "note": "[Tasimelteon]", "cell viability": 49.5}
{"smiles": "Clc1ccc(COC(Cn2ccnc2)c2ccc(Cl)cc2Cl)cc1", "note": "(centres undefined) [Econazole nitrate]", "cell viability": 82.2}
{"smiles": "Clc1ccc(COC(Cn2ccnc2)c2ccc(Cl)cc2Cl)cc1", "note": "(centres undefined) [Econazole]", "cell viability": 81.9}
{"smiles": "CCCC(C(=O)OCCN(CC)CC)(c1ccccc1)c1ccccc1", "note": "[Proadifen HCl]", "cell viability": 87.6}
{"smiles": "CO[C@H]1C(=O)[C@]2(C)[C@@H](OC)C[C@H]3OC[C@@]3(OC(C)=O)[C@H]2[C@H](OC(=O)c2ccccc2)[C@]2(O)C[C@H](OC(=O)[C@H](O)[C@@H](NC(=O)OC(C)(C)C)c3ccccc3)C(C)=C1C2(C)C", "note": "[Cabazitaxel]", "cell viability": 70.1}
{"smiles": "O=S(=O)(O)CCSSCCS(=O)(=O)O", "note": "[Dimesna]", "cell viability": 70}
{"smiles": "CN1CCC[C@H]1c1cccnc1", "note": "[Nicotine Ditartrate]", "cell viability": 85.9}
